Measured values taken from the supplement of paper PMC10338343.
± gives the standard deviation. The list shows a part of the results, in another mix than the full data. Many of these values have a large error.

test system: MILI (PIWIL2) piRISC loaded with piRNA #1 (26 nt); assay: pre-steady-state target cleavage rate (min^-1); MIWI and MILI are mouse PIWI proteins and EfPiwi is from a freshwater sponge; tags in brackets are library labels; higher = faster piRNA-guided slicing of the target; conditions: guide: piRNA #1 5'p-UGAGGUAGUAGGUUGUAUAGUAUCCA; auxiliary factor: 500 nM mouse GTSF1
Method in brief: (§1)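 A transcribed, DNA-blocked target RNA library (0.1 nM) and 1 nM active affinity-purified piRISC bearing one synthetic guide were incubated in HEPES–potassium acetate buffer at 33 °C for 0–8 or 0–960 min, either with or without 500 nM GTSF1 partner protein. Uncleaved targets were sequenced, normalised to depth and to weakly complementary targets, and pooled over three trials, with k3 capped at 0.0001 min^-1. The pre-steady-state cleavage rate was derived with a burst-and-steady-state fit.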

Sequence	pre-steady-state target cleavage rate
GGAGACCUAUGAAUACAGCCUACUACCUCA	0.00194 ± 0.0041
GGAGACCUAACUAUACAACCUACUCCUCA	0.0015 ± 0.012
GGAGACCUAUGAUAUCAACCUACUAGGAGA [g6:g15:cont:t1A]	0.000427 ± 0.011
GGAGACCUUAUAUACAACCUACUACCUCA	0.0314 ± 0.0072
GGAGACCAUACUAUAAACCUACUACCUCA	0.0199 ± 0.0046
GGAGACCUAUGAUAUCAACCUACUACCGCA	0.00141 ± 0.0051
GGAGACGAUACUAUACAACCUUCUAGCUCA	0.0027 ± 0.0031
GGAGACCUAUGAUAAGAACCUACUACCACA	0.000201 ± 0.011
GGAGACCUAUCUACACAACCUACUACCUCA	0.072 ± 0.0099
GGAGACCUAUGAUAUGUUCCUACUACCUCU [g2:g12:cont:t1U]	< 0.0001
GGAGACCUAUGAUAUGAACGUACUACGUCA	0.0005 ± 0.01
GGAGACCUAUGAAUUCAACCUACUACCACA	0.00146 ± 0.0038
GGAGACCUAUGAAUAGUACCUACUACCUCA	0.000242 ± 0.0072
GGAGACCUAUGAUAUGUACCUACUACCUCG [g2:g13:cont:t1G]	0.000301 ± 0.0095
GGAGACCUAACUAUACAACCUACUACCUCCA	0.123 ± 0.021
GGAGACCUAUGAUAUCUACCUACAACCUCA	0.000385 ± 0.0076
GGAGACCUAUGUAUACAACUCUACUACCUCA	0.000517 ± 0.0088
GGAGACCAUUGUAUACAACCUACUACCUCA	0.0325 ± 0.0067
GGAGACCUUACUAUACAACGUACUUCCUCA	0.0242 ± 0.0053
GGAGACCUAUGAUAUCUACCUACUAGCUCA	0.000605 ± 0.0058

Sequence	pre-steady-state target cleavage rate
GGAGACCUAUGUAUACAACCUUCUACCUCA	0.00351 ± 0.0017
GGAGUGGAAACAAUACAACCUACUACCUCA	0.184 ± 0.018
GGAGACCUAUGAUAUGUACCUUGUACCUCA	0.000114 ± 0.029
GGAGACCUAUGAUAUGUUGGUACUACCCUCA	0.000128 ± 0.037
GGAGACCUAACUAUACAACCUAGUACGUCA	0.00131 ± 0.0098
GGAGAGGAUUACUAUACAACCUACUACCUCA	0.132 ± 0.0095
GGAGACGAUACUAUACAACCUUCUUCCUCA	0.00309 ± 0.0034
GGAGACCUAUGAUAUCAAGCAACUACCUCA	0.000299 ± 0.0095
GGAGACCUAUCAUAUACAACCUACUACCUCA	0.0423 ± 0.0085
GGAGUGGAUACUAUACAACCUUGUACCUCA	0.0009 ± 0.005
GGAGACCUAUGAUAUCAUCCUACUAGCUCA	0.00174 ± 0.0036
GGAGAGGAAACUAAACAACCUACUACCUCA	0.229 ± 0.03
GGAGACCUAUGAUAUGUUCCUUCAACCUCA	0.000119 ± 0.027
GGAGACCUAUGAUAUGUACCUACUUACCUCA	0.000235 ± 0.011
GGAGACCUAUGAAUAGAACCUACUACGUCA	0.000135 ± 0.025
GGAGACCUAUGAUUACUAACCUACUACCUCA	0.000392 ± 0.0091
GGAGACCUAUGAUAUGUUGGUACUACCCA	0.000156 ± 0.034
GGAGACCAUACUAUACAAGGAACUACCUCA	0.00168 ± 0.0046
GGAGACCUAUGAAUAGAACCUACAACCUCA	0.000372 ± 0.0088
GGAGACCUAUGAUAUGUUCCGACUACCUCA	0.000239 ± 0.015

test system: MIWI (PIWIL1) piRISC loaded with piRNA #1 (30 nt); assay: as above; conditions: guide: piRNA #1 5'p-UGAGGUAGUAGGUUGUAUAGUAUCCAGAGG; auxiliary factor: 500 nM mouse GTSF1
Method in brief: as §1

Sequence	pre-steady-state target cleavage rate
GGAGACCUAUGAAUACAGCCUACUACCUCA	0.00125 ± 0.0048
GGAGACCUAUGAUAUCAACCUACUACCGCA	0.000283 ± 0.011
GGAGACCAUACUAUACAAGGAACUACCUCA	0.000761 ± 0.0062
GGAGACCUAUGAUAUGUUCCGACUACCUCA	0.000378 ± 0.0092
